The results in this text go back to publication PMC7666136.

Chains of the proteins cited; added tags and fusions are not shown. Lines headed by an entry give the natural chain unless they say otherwise; changes in a name come on top. A line that says so, or that is headed by a name, gives the form on record, which may keep a tag or linker.
UniProt Q12888: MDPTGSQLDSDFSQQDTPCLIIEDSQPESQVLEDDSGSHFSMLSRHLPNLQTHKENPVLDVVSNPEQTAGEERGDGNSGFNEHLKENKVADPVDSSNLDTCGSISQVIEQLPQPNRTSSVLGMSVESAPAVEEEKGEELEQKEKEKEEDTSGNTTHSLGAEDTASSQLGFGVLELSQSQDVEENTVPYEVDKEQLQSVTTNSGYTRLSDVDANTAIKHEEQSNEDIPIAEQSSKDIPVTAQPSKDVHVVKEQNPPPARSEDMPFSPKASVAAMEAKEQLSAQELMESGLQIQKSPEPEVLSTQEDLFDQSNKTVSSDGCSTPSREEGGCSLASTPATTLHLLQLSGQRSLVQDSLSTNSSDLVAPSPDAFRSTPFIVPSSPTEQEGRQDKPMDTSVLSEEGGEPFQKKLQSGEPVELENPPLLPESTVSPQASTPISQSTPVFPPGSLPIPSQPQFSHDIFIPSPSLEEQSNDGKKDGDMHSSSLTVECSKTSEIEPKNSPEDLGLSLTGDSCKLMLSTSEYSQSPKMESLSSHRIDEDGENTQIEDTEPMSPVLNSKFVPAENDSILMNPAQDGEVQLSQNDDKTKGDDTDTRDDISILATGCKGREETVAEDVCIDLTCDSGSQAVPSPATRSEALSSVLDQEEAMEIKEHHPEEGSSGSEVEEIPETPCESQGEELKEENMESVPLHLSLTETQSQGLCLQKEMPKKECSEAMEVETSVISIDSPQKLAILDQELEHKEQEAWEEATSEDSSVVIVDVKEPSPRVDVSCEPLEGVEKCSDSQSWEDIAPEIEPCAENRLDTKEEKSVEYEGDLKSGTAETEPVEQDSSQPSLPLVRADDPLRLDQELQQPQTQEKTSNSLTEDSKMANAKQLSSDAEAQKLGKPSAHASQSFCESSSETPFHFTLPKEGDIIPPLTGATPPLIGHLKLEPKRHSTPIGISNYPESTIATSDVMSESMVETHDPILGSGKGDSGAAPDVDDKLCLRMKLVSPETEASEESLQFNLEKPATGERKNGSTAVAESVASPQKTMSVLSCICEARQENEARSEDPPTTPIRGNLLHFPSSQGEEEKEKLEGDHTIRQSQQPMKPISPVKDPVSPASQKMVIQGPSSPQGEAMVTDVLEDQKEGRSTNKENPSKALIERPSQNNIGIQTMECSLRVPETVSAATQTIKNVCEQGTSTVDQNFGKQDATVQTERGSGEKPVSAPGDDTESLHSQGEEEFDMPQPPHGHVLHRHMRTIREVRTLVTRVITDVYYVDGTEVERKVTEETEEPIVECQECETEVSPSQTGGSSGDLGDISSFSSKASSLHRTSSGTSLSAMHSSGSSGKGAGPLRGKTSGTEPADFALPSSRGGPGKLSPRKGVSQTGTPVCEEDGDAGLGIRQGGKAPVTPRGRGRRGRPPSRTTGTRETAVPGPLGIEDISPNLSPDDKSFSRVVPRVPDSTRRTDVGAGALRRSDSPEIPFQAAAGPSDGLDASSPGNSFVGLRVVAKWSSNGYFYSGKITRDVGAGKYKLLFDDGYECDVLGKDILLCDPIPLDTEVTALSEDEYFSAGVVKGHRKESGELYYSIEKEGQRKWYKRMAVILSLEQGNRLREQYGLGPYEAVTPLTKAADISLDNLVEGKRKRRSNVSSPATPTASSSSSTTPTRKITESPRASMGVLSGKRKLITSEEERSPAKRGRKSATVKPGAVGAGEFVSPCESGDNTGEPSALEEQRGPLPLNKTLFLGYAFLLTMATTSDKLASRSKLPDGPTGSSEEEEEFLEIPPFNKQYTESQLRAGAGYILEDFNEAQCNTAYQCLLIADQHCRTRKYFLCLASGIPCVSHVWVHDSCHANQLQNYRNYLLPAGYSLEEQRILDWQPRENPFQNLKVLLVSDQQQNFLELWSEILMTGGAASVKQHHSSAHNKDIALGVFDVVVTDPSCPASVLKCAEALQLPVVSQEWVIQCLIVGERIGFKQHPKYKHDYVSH
eGFP-53BP1^YY1258,1259AA (Q12888, form named): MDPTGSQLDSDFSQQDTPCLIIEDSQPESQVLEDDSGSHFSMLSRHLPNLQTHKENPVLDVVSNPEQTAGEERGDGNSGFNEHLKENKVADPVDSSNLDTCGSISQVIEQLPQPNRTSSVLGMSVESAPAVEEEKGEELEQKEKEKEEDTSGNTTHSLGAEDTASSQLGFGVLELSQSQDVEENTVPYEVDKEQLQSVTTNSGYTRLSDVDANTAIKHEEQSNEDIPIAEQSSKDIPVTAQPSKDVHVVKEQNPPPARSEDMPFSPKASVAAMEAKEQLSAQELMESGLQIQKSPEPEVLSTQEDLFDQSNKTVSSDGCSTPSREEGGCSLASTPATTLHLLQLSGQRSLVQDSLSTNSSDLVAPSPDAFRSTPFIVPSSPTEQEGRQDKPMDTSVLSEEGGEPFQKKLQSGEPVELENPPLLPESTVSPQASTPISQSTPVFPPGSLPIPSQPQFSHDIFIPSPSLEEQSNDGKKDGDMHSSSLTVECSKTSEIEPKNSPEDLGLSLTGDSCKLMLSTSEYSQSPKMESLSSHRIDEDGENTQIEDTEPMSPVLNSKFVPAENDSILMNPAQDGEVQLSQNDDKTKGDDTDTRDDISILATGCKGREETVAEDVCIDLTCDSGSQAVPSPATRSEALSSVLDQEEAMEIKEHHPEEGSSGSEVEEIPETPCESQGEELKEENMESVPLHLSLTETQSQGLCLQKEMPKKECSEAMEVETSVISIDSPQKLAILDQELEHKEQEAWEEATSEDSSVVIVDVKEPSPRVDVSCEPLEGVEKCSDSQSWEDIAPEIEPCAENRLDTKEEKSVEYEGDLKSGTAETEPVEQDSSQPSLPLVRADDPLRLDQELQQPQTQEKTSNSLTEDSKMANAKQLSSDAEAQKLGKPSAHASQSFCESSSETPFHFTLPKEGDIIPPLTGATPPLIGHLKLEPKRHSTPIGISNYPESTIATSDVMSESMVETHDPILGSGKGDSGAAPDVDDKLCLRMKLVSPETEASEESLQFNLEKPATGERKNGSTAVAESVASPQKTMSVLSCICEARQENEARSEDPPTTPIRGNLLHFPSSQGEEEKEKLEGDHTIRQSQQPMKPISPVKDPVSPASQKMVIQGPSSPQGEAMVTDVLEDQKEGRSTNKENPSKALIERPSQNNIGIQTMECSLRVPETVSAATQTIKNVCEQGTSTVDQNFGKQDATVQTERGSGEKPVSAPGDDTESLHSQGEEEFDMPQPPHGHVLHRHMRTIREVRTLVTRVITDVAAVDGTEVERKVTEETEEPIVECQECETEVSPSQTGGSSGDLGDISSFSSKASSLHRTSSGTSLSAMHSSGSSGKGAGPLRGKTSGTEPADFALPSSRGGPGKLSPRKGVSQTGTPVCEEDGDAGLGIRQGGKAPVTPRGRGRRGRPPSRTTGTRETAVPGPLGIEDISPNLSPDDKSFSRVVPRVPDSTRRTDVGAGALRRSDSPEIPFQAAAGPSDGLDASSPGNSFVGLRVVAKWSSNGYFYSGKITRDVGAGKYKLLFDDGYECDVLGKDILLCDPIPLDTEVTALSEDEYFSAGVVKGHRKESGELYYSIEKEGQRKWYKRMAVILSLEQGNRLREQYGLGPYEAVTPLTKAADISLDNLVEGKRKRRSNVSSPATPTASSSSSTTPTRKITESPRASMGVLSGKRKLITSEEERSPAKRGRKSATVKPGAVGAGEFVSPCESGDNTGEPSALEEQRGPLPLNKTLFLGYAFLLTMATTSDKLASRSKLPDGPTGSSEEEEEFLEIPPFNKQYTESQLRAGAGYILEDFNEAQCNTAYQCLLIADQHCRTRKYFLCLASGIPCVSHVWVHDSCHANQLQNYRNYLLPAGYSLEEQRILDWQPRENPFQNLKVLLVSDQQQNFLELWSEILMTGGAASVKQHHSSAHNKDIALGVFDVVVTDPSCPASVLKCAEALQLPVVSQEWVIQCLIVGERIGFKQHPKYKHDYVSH

Test [1] has as its target eGFP-53BP1^D1521R (UniProt Q12888). The test is described as follows: cross-pair correlation function (cross-pCF) analysis, two-colour fluorescence cross-correlation; two-channel line scans in live DIvA cells co-transfected with eGFP- and mKate2-tagged copies of the same 53BP1 construct, treated with 4OHT for 60 min; dimer fraction from cross pCF0 against pCF0, corrected for spectral bleed through.

The target is the same in test [2]. The test is described as follows: Number and Brightness (NB) analysis of fluorescence fluctuation spectroscopy; frame scans in nuclei of live DIvA cells expressing eGFP-tagged 53BP1 constructs, 37 °C, brightness windows calibrated on free eGFP (B monomer 1.15, dimer 1.30, oligomer >1.60); before and 30-60 min after 4OHT induction of DSBs; also after knockdown of endogenous 53BP1.

For test [3], the target named is eGFP-53BP1^K1814M (UniProt Q12888). The test can be described thus: cross-pair correlation function (cross-pCF) analysis, two-colour fluorescence cross-correlation; two-channel line scans in live DIvA cells co-transfected with eGFP- and mKate2-tagged copies of the same 53BP1 construct, treated with 4OHT for 60 min; dimer fraction from cross pCF0 against pCF0, corrected for spectral bleed through.

Test [4] shares this target. The test can be described thus: Number and Brightness (NB) analysis of fluorescence fluctuation spectroscopy; frame scans in nuclei of live DIvA cells expressing eGFP-tagged 53BP1 constructs, 37 °C, brightness windows calibrated on free eGFP (B monomer 1.15, dimer 1.30, oligomer >1.60); before and 30-60 min after 4OHT induction of DSBs; also after knockdown of endogenous 53BP1.

The target in test [5] is eGFP-53BP1^L1619A (UniProt Q12888). The test can be described thus: cross-pair correlation function (cross-pCF) analysis, two-colour fluorescence cross-correlation; two-channel line scans in live DIvA cells co-transfected with eGFP- and mKate2-tagged copies of the same 53BP1 construct, treated with 4OHT for 60 min; dimer fraction from cross pCF0 against pCF0, corrected for spectral bleed through.

The target is the same in test [6]. The test can be described thus: Number and Brightness (NB) analysis of fluorescence fluctuation spectroscopy; frame scans in nuclei of live DIvA cells expressing eGFP-tagged 53BP1 constructs, 37 °C, brightness windows calibrated on free eGFP (B monomer 1.15, dimer 1.30, oligomer >1.60); before and 30-60 min after 4OHT induction of DSBs; also after knockdown of endogenous 53BP1.

Test [7] has as its target eGFP-53BP1^YY1258,1259AA (UniProt Q12888). The test is described as follows: FRET or BRET; homo-FRET by fluorescence anisotropy imaging microscopy (FAIM) of eGFP-tagged 53BP1 constructs in live DIvA cells; delta r against free eGFP (r 0.32); before and after 4OHT. On the technique in general: BRET reads energy transfer from a luciferase to a nearby fluorophore.
Test [8] has the same target. The test is described as follows: Number and Brightness (NB) analysis of fluorescence fluctuation spectroscopy; frame scans in nuclei of live DIvA cells expressing eGFP-tagged 53BP1 constructs, 37 °C, brightness windows calibrated on free eGFP (B monomer 1.15, dimer 1.30, oligomer >1.60); before and 30-60 min after 4OHT induction of DSBs; also after knockdown of endogenous 53BP1.

No constants are given. Whether binding was seen depends on the method and setting. For some assays here: Binding seen in cells or lysates may run through a third protein. Some results given as binding are weak or reduced against the parent protein; the word gives no strength.

Regarding “eGFP-53BP1^D1521R (from UniProt Q12888 1-1972)”, the binding entry in the test with eGFP-53BP1^D1521R [1] and in the test with eGFP-53BP1^D1521R [2] was “binds” in each case.
Take “eGFP-53BP1^K1814M (from UniProt Q12888 1-1972)”: the binding result with eGFP-53BP1^K1814M [3] and with eGFP-53BP1^K1814M [4] was “binds” each time.
Take “eGFP-53BP1^L1619A (from UniProt Q12888 1-1972)”: the binding entry in the test with eGFP-53BP1^L1619A [5] and with eGFP-53BP1^L1619A [6] was “binds” each time.
As for “eGFP-53BP1^YY1258,1259AA (from UniProt Q12888 1-1972)”, the binding entry with eGFP-53BP1^YY1258,1259AA [7] and in the test with eGFP-53BP1^YY1258,1259AA [8] was “binds” each time.
